The results in this text go back to publication PMC3068181.

By UniProt entry, the sequences of proteins in these tests, tags left out.
UniProt Q9UDY8: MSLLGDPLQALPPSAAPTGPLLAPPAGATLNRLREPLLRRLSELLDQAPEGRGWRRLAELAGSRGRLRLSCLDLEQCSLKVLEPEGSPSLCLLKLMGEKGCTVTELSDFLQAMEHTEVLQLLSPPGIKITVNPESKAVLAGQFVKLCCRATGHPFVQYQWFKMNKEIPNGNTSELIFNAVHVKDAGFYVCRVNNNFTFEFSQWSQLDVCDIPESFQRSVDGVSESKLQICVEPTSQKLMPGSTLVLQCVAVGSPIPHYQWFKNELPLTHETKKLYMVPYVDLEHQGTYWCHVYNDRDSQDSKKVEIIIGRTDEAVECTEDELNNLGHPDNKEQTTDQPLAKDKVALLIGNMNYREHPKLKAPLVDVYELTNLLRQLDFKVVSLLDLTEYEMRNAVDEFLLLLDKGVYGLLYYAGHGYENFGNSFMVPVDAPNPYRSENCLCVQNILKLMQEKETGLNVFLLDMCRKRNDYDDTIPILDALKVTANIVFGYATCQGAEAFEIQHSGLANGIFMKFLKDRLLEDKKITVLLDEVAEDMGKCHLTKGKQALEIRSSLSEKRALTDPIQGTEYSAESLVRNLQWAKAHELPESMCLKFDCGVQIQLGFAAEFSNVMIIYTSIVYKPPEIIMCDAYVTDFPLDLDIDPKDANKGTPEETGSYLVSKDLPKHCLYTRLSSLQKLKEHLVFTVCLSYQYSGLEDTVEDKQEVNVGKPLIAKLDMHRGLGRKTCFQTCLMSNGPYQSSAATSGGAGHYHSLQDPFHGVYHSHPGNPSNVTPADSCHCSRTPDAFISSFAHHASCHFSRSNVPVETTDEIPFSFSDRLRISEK

These are yes or no findings as the source states them, for the method shown. Binding seen in cells or lysates may run through a third protein. Some entries that bind do so weakly or less than the wild type.

The test concerns the target T1, BCL10 (human (endogenous in Jurkat)) (UniProt O95999).
T1 sequence: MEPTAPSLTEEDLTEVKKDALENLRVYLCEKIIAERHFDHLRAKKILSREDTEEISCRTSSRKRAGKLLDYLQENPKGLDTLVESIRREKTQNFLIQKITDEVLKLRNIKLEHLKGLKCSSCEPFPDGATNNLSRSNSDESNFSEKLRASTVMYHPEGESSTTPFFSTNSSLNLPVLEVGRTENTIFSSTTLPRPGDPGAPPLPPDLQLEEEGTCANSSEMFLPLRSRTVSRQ
Put plainly: co-IP; BCL10 immunoprecipitated (anti-BCL10, protein G-sepharose, overnight, 4°C) from lysates of Jurkat cells transfected with nonspecific or PALS1 siRNA and stimulated with 1 µg/ml anti-CD3 and anti-CD28 for 0, 10, 20 min; lysis in 50 mM Tris pH 7.4, 150 mM NaCl, 1% Triton X-100, 1% Igepal, 2 mM EDTA; immunoblot for CARMA1 and MALT1.

On to MALT1 (from UniProt Q9UDY8 1-824), for which the binding entry was “binds”.
